Data on 26 compounds can be found in the supplement of paper PMC10077471.

The structures appear in SMILES notation. Whole data set: some 1,900 compounds, median “excess over highest single agent (ExcessHSA) synergy score, 6x6 matrix” near -83, cut for the lowest 2% near -370. Some of the results follow.

The subject of the test is NCI-H446. The experiment in a line: excess over highest single agent (ExcessHSA) synergy score, 6x6 matrix; higher = less synergy (more negative = stronger synergy). The following applies: 72 h; CellTiter-Glo viability.
For `Nc1ncnc2ccccc12` + Cc1sc2c(c1C)C(c1ccc(Cl)cc1)=N[C@@H](CC(=O)OC(C)(C)C)c1nnc(C)n1-2 [NCGC00250412-19], the “excess over highest single agent” value was found to be 79.3. Then `CC1=NN(c2ccccc2)C(=O)C1` + Cc1sc2c(c1C)C(c1ccc(Cl)cc1)=N[C@@H](CC(=O)OC(C)(C)C)c1nnc(C)n1-2 [NCGC00250412-19], with -110; and `Cn1cnc2c1c(=O)[nH]c(=O)n2C` + Cc1sc2c(c1C)C(c1ccc(Cl)cc1)=N[C@@H](CC(=O)OC(C)(C)C)c1nnc(C)n1-2 [NCGC00250412-19], with -51.3; and `CCC[C@@H]1C[C@@H](C(=O)N[C@@H]([C@H]2O[C@H](SC)[C@H](O)[C@@H](O)[C@H]2O)[C@H](C)Cl)N(C)C1` + Cc1sc2c(c1C)C(c1ccc(Cl)cc1)=N[C@@H](CC(=O)OC(C)(C)C)c1nnc(C)n1-2 [NCGC00250412-19], with 41.8. Turning to `Nc1ncnc2c1nc(Cl)n2[C@@H]1O[C@H](CO)[C@@H](O)[C@H]1O` + Cc1sc2c(c1C)C(c1ccc(Cl)cc1)=N[C@@H](CC(=O)OC(C)(C)C)c1nnc(C)n1-2 [NCGC00250412-19], the “excess over highest single agent” value was -61.2. `CO[C@H]1/C=C\C=C(/C)C(=O)NC2=CC(=O)C(NCCN(C)C)=C(C[C@@H](C)C[C@H](OC)[C@H](O)[C@@H](C)/C=C(\C)[C@@H]1OC(N)=O)C2=O` + Cc1sc2c(c1C)C(c1ccc(Cl)cc1)=N[C@@H](CC(=O)OC(C)(C)C)c1nnc(C)n1-2 [NCGC00250412-19]: the “excess over highest single agent” value is -331. `O=C(N[C@H](CO)[C@H](O)c1ccc([N+](=O)[O-])cc1)C(Cl)Cl` + Cc1sc2c(c1C)C(c1ccc(Cl)cc1)=N[C@@H](CC(=O)OC(C)(C)C)c1nnc(C)n1-2 [NCGC00250412-19]: the “excess over highest single agent” value came out at 70.4. Under `CCCCCNC(=O)N1CCC(CN(Cc2ccc(Cl)cc2)Cc2ccc([N+](=O)[O-])s2)C1` (stereo unspecified) + Cc1sc2c(c1C)C(c1ccc(Cl)cc1)=N[C@@H](CC(=O)OC(C)(C)C)c1nnc(C)n1-2 [NCGC00250412-19] stands 15.1; under `Cc1c(C(=O)Nc2cccc(C(F)(F)F)c2)cc(-c2ccccc2)n1CCCN1CCOCC1` + Cc1sc2c(c1C)C(c1ccc(Cl)cc1)=N[C@@H](CC(=O)OC(C)(C)C)c1nnc(C)n1-2 [NCGC00250412-19], -146; under `CNC1[C@H](O)C(O[C@@H]2C(O)C(O[C@H]3O[C@H]([C@@H](C)NC)CC[C@H]3N)[C@@H](N)C[C@H]2N)OC[C@]1(C)O` (stereo partly specified) + Cc1sc2c(c1C)C(c1ccc(Cl)cc1)=N[C@@H](CC(=O)OC(C)(C)C)c1nnc(C)n1-2 [NCGC00250412-19], -204. Turning to `NC(=O)c1cccc(-c2cc(Nc3ccc(OC(F)(F)F)cc3)ncn2)c1` + Cc1sc2c(c1C)C(c1ccc(Cl)cc1)=N[C@@H](CC(=O)OC(C)(C)C)c1nnc(C)n1-2 [NCGC00250412-19], the “excess over highest single agent” value was -50.4. In the case of `CC1=C(CC/C(C)=C/CCC2=CC[C@H](C3=CC(=O)O[C@H]3O)O[C@H]2O)C(C)(C)CCC1` + Cc1sc2c(c1C)C(c1ccc(Cl)cc1)=N[C@@H](CC(=O)OC(C)(C)C)c1nnc(C)n1-2 [NCGC00250412-19], the “excess over highest single agent” value is -147. Consider `O=C1CSC(=O)N1C(CCc1ccncc1)COc1ccc(-c2cccc([N+](=O)[O-])c2)cc1` (stereo unspecified) + Cc1sc2c(c1C)C(c1ccc(Cl)cc1)=N[C@@H](CC(=O)OC(C)(C)C)c1nnc(C)n1-2 [NCGC00250412-19], for which the “excess over highest single agent” value is -96.7. Under `CC1(C)O[C@H]2CC(=O)OC[C@]23[C@H]2CC[C@@]4(C)[C@H](c5ccoc5)OC(=O)[C@H]5O[C@]54[C@]2(C)C(=O)C[C@@H]13` + Cc1sc2c(c1C)C(c1ccc(Cl)cc1)=N[C@@H](CC(=O)OC(C)(C)C)c1nnc(C)n1-2 [NCGC00250412-19] stands -232. In the case of `CC(C)C[C@@H](C(=O)N[C@H](C(=O)OC1CCCC1)c1ccccc1)[C@H](O)C(=O)NO` + Cc1sc2c(c1C)C(c1ccc(Cl)cc1)=N[C@@H](CC(=O)OC(C)(C)C)c1nnc(C)n1-2 [NCGC00250412-19], the “excess over highest single agent” value came out at 245.

As for `CCCCCCCCCCCCCCCCCCCCCCO` + Cc1sc2c(c1C)C(c1ccc(Cl)cc1)=N[C@@H](CC(=O)OC(C)(C)C)c1nnc(C)n1-2 [NCGC00250412-19], the “excess over highest single agent” value was -117. In the case of `NS(=O)(=O)c1ccc(NC2=CC(=O)c3ccccc3C2=O)cc1` + Cc1sc2c(c1C)C(c1ccc(Cl)cc1)=N[C@@H](CC(=O)OC(C)(C)C)c1nnc(C)n1-2 [NCGC00250412-19], the “excess over highest single agent” value was -112. Turning to `CN1c2ccccc2C(=O)N2CCc3c([nH]c4ccccc34)[C@@H]21` + Cc1sc2c(c1C)C(c1ccc(Cl)cc1)=N[C@@H](CC(=O)OC(C)(C)C)c1nnc(C)n1-2 [NCGC00250412-19], the “excess over highest single agent” value was -226. Under `CN(N=O)C(=O)N[C@@H]1[C@@H](O)[C@H](O)[C@@H](CO)O[C@@H]1O` + Cc1sc2c(c1C)C(c1ccc(Cl)cc1)=N[C@@H](CC(=O)OC(C)(C)C)c1nnc(C)n1-2 [NCGC00250412-19] stands -18.6; under `CCCCCCOC(=O)NC(=N)c1ccc(NCc2nc3cc(C(=O)N(CCC(=O)OCC)c4ccccn4)ccc3n2C)cc1` + Cc1sc2c(c1C)C(c1ccc(Cl)cc1)=N[C@@H](CC(=O)OC(C)(C)C)c1nnc(C)n1-2 [NCGC00250412-19], -41.3. On to `CN[C@@H]1[C@H](O)[C@H](NC)[C@H]2O[C@@]3(O)C(=O)C[C@@H](C)O[C@H]3O[C@@H]2[C@H]1O` + Cc1sc2c(c1C)C(c1ccc(Cl)cc1)=N[C@@H](CC(=O)OC(C)(C)C)c1nnc(C)n1-2 [NCGC00250412-19], for which the “excess over highest single agent” value is -111. In the case of `NS(=O)(=O)c1cc2c(cc1Cl)NC(C(Cl)Cl)NS2(=O)=O` (stereo unspecified) + Cc1sc2c(c1C)C(c1ccc(Cl)cc1)=N[C@@H](CC(=O)OC(C)(C)C)c1nnc(C)n1-2 [NCGC00250412-19], the “excess over highest single agent” value was -193. For the compound `COc1ccc(Cn2ccc3ccc(C(=O)NO)cc32)cc1` + Cc1sc2c(c1C)C(c1ccc(Cl)cc1)=N[C@@H](CC(=O)OC(C)(C)C)c1nnc(C)n1-2 [NCGC00250412-19], the “excess over highest single agent” value was -152.

With `C#Cc1cccc(Nc2ncnc3cc(OCCOC)c(OCCOC)cc23)c1` + Cc1sc2c(c1C)C(c1ccc(Cl)cc1)=N[C@@H](CC(=O)OC(C)(C)C)c1nnc(C)n1-2 [NCGC00250412-19], the “excess over highest single agent” value is 140.

Regarding `Cc1onc(-c2ccccc2Cl)c1C(=O)N[C@@H]1C(=O)N2[C@@H]1SC(C)(C)[C@@H]2C(=O)O` + Cc1sc2c(c1C)C(c1ccc(Cl)cc1)=N[C@@H](CC(=O)OC(C)(C)C)c1nnc(C)n1-2 [NCGC00250412-19], the “excess over highest single agent” value was -42.3.

As for `COc1ccccc1-c1cccc(-c2c(O)c3cc(C#N)c(Cl)cc3[nH]c2=O)c1` + Cc1sc2c(c1C)C(c1ccc(Cl)cc1)=N[C@@H](CC(=O)OC(C)(C)C)c1nnc(C)n1-2 [NCGC00250412-19], the “excess over highest single agent” value was -15.9.
